PubChem BioAssay AID686937 – Drosophila RNAi Screening Center | 2013
In all, the deposit lists about 23,000 reagents; this is an unselected part of those with a known target gene and a result. 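Reduced-secretion tags in replicate 1 do not always agree with the z-scores; no criterion for assigning the tags was given.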 The numbers tell different reagents against one gene apart. Not given: the amount of reagent.

Test: 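Knock-downs that reduce output of a secreted reporter enzyme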 (primary screen)
Cell system: Drosophila S2 cells expressing secreted horseradish peroxidase
Reagent: long dsRNA against Drosophila genes
Time to read-out: about 5.5 days (5 days dsRNA, then 12 h reporter induction)
Treatment: reporter expression induced after 5 days of dsRNA, read 12 h later; inducer not stated
Read-out: 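Chemiluminescent measurement of peroxidase in the medium 12 h after reporter induction, following 5 days of dsRNA, given as a z-score per plate; higher means more secretion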
Reading the numbers: z-score: higher = more reporter secreted into medium

The opening 2 entries, ahead of the listing:
target gene	reagent no.	z-score, replicate 1	z-score, replicate 2
CG5188 (GeneID 34428)	1	-0.07	-0.24
CG5567 (GeneID 39986)	1	0.4	0.27

Main list, from the first entry:
target gene	reagent no.	z-score, replicate 1	z-score, replicate 2
CG5188 (GeneID 34428)	1	-0.07	-0.24
CG5567 (GeneID 39986)	1	0.4	0.27
CG31121 (GeneID 42975)	1	0.01	0.06
CG31121 (GeneID 42975)	2	-0.09	0.06
CG18281 (GeneID 40274)	1	0.24	0.33
CG4294 (GeneID 37579)	1	-0.01	-0.05
Chd64 (GeneID 38490)	1	0.27	0.24
Mon1 (GeneID 33689)	1	-0.02	0.18
Osi7 (GeneID 40761)	1	0.21	0.45
Cp15 (GeneID 38999)	1	0.28	0.24
mthl6 (GeneID 38839)	1	0.21	0.34
Gr64f (GeneID 117477)	1	0.32	0.13
CG10527 (GeneID 37393)	1	0.04	0.36
CG9578 (GeneID 33018)	1	0.27	0.41
CG8476 (GeneID 41624)	1	0.15	0.29
sano (GeneID 37185)	1	0.29	0.19
PIG-Wb (GeneID 38220)	1	0.16	0.14
CG17782 (GeneID 42912)	1	0.1	0.28
PTP-ER (GeneID 37461)	1	0.63	0.41
CG10801 (GeneID 31314)	1	-0.36	-0.55
CG31174 (GeneID 318616)	1	0.26	0.16
Crk (GeneID 43775)	1	0.22	0.18
GstE8 (GeneID 37113)	1	0.34	0.48
CG13041 (GeneID 39801)	1	0.1	0.12
GstE12 (GeneID 37960)	1	0.03	0.2
CG8389 (GeneID 36764)	1	0.32	0.18
CG8389 (GeneID 36764)	2	0.2	0.21
Magi (GeneID 37403)	1	0.28	0.3
Magi (GeneID 37403)	2	0.36	0.1
tst (GeneID 42813)	1	0.35	0.38
CG7156 (GeneID 42187)	1	0.3	0.29
CG9109 (GeneID 33844)	1	0.2	0.02
Rab9 (GeneID 35221)	1	0.38	0.44
PolE1 (GeneID 42758)	1	0.72	0.5
EDTP (GeneID 36959)	1	0.32	0.2
CG1172 (GeneID 40647)	1	0.47	0.66
CG1172 (GeneID 40647)	2	0.6	0.25
fra (GeneID 36377)	1	0.15	0.12
CG15641 (GeneID 32477)	1	0.37	0.38
CG15356 (GeneID 33370)	1	0.36	0.3
CG12502 (GeneID 38102)	1	0.38	0.55
pont (GeneID 53439)	1	-1.19	-1.42
Ccdc58 (GeneID 40159)	1	0.15	-0.28
CG31262 (GeneID 318649)	1	0.48	0.45
PHDP (GeneID 37788)	1	0.43	0.29
CG4983 (GeneID 34585)	1	0.44	0.29
CG34320 (retired record) (GeneID 5740595)	1	0.17	-0.15
cuff (GeneID 36269)	1	0.56	0.58
CG13460 (GeneID 39638)	1	0.03	0.02
Ilp3 (GeneID 39151)	1	0.58	0.45
CG33307 (GeneID 2768914)	1	-0.51	-0.09
SPH93 (GeneID 35049)	1	0.43	0.16
Den1 (GeneID 36339)	1	0.33	0.18
CG5001 (GeneID 33308)	1	0.03	0.29
Opbp (GeneID 246618)	1	-0.04	0
CG42458 (GeneID 2768945)	1	0.37	0.34
CG42458 (GeneID 2768945)	2	0.14	-0.45
